# Some of the results follow.
# B1: MFG-E8 (Mus musculus), P21956 (protein)
# chain: MQVSRVLAALCGMLLCASGLFAASGDFCDSSLCLNGGTCLTGQDNDIYCLCPEGFTGLVCNETERGPCSPNPCYNDAKCLVTLDTQRGDIFTEYICQCPVGYSGIHCETETNYYNLDGEYMFTTAVPNTAVPTPAPTPDLSNNLASRCSTQLGMEGGAIADSQISASSVYMGFMGLQRWGPELARLYRTGIVNAWTASNYDSKPWIQVNLLRKMRVSGVMTQGASRAGRAEYLKTFKVAYSLDGRKFEFIQDESGGDKEFLGNLDNNSLKVNMFNPTLEAQYIKLYPVSCHRGCTLRFELLGCELHGCSEPLGLKNNTIPDSQMSASSSYKTWNLRAFGWYPHLGRLDNQGKINAWTAQSNSAKEWLQVDLGTQRQVTGIITQGARDFGHIQYVASYKVAHSDDGVQWTVYEEQGSSKVFQGNLDNNSHKKNIFEKPFMARYVRVLPVSWHNRITLRLELLGC
# Columns and labels:
# Test in all cases: glycan array binding signal (z-score within array); higher = stronger binding
# Conditions in all cases: glycan notation: IUPAC condensed, linker removed
# [1] = target: Fuc(a1-2)[GalNAc(a1-3)]Gal(b1-3)GalNAc(b1-3)Gal(a1-4)Gal(b1-4)Glc
# In short: (§1)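 The Consortium for Functional Glycomics database supplied 3228 glycan arrays, of which those lacking an available protein sequence were dropped. The binding signal, a within-array Z-score, was averaged across arrays of the same protein sequence and across linkers. Negative scores can be read as non-binding.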
# [2] = target: Fuc(a1-2)[GalNAc(a1-3)]Gal(b1-3)GlcNAc
# In short: as §1
# [3] = target: Fuc(a1-2)[GalNAc(a1-3)]Gal(b1-3)GlcNAc(b1-2)Man(a1-3)[Fuc(a1-2)[GalNAc(a1-3)]Gal(b1-3)GlcNAc(b1-2)Man(a1-6)]Man(b1-4)GlcNAc(b1-4)GlcNAc
# In short: as §1
# [4] = target: Fuc(a1-2)[GalNAc(a1-3)]Gal(b1-3)GlcNAc(b1-2)Man(a1-3)[Fuc(a1-2)[GalNAc(a1-3)]Gal(b1-3)GlcNAc(b1-2)Man(a1-6)]Man(b1-4)GlcNAc(b1-4)[Fuc(a1-6)]GlcNAc
# In short: as §1
# [5] = target: Fuc(a1-2)[GalNAc(a1-3)]Gal(b1-3)GlcNAc(b1-3)GalNAc
# In short: as §1
# [6] = target: Fuc(a1-2)[GalNAc(a1-3)]Gal(b1-3)GlcNAc(b1-6)GalNAc
# In short: as §1
# [7] = target: Fuc(a1-2)[GalNAc(a1-3)]Gal(b1-4)Glc
# In short: as §1
# [8] = target: Fuc(a1-2)[GalNAc(a1-3)]Gal(b1-4)GlcNAc
# In short: as §1
# [9] = target: Fuc(a1-2)[GalNAc(a1-3)]Gal(b1-4)GlcNAc(b1-2)Man
# In short: as §1
# [10] = target: Fuc(a1-2)[GalNAc(a1-3)]Gal(b1-4)GlcNAc(b1-2)Man(a1-3)[Fuc(a1-2)[GalNAc(a1-3)]Gal(b1-4)GlcNAc(b1-2)Man(a1-6)]Man(b1-4)GlcNAc(b1-4)GlcNAc
# In short: as §1
# [11] = target: Fuc(a1-2)[GalNAc(a1-3)]Gal(b1-4)GlcNAc(b1-2)Man(a1-3)[Fuc(a1-2)[GalNAc(a1-3)]Gal(b1-4)GlcNAc(b1-2)Man(a1-6)]Man(b1-4)GlcNAc(b1-4)[Fuc(a1-6)]GlcNAc
# In short: as §1
# [12] = target: Fuc(a1-2)[GalNAc(a1-3)]Gal(b1-4)GlcNAc(b1-3)Gal(b1-4)GlcNAc
# In short: as §1
# [13] = target: Fuc(a1-2)[GalNAc(a1-3)]Gal(b1-4)GlcNAc(b1-3)Gal(b1-4)GlcNAc(b1-3)Gal(b1-4)GlcNAc
# In short: as §1
# [14] = target: Fuc(a1-2)[GalNAc(a1-3)]Gal(b1-4)GlcNAc(b1-3)GalNAc
# In short: as §1
# [15] = target: Fuc(a1-2)[GalNAc(a1-3)]Gal(b1-4)GlcNAc(b1-3)[Fuc(a1-2)[GalNAc(a1-3)]Gal(b1-4)GlcNAc(b1-6)]GalNAc
# In short: as §1
# [16] = target: Fuc(a1-2)[GalNAc(a1-3)]Gal(b1-4)GlcNAc(b1-6)GalNAc
# In short: as §1
# [17] = target: Fuc(a1-2)[GalNAc(a1-3)]Gal(b1-4)[Fuc(a1-3)]GlcNAc
# In short: as §1
# [18] = target: Fuc(a1-2)[GalNAc(a1-3)]Gal(b1-4)[Fuc(a1-3)]GlcNAc(b1-3)GalNAc
# In short: as §1
# [19] = target: Fuc(a1-2)[GalNAc(a1-4)]Gal(b1-4)GlcNAc
# In short: as §1
# [20] = target: Fuc(a1-2)[GalNAc(b1-3)]Gal
# In short: as §1
# Fuc(a1-3)GlcNAc = target: Fuc(a1-3)GlcNAc
# In short: as §1
# [21] = target: Fuc(a1-3)[Gal(b1-4)]Glc6S
# In short: as §1
# [22] = target: Fuc(a1-3)[Gal(b1-4)]GlcNAc
# In short: as §1
# [23] = target: Fuc(a1-3)[Gal(b1-4)]GlcNAc(b1-2)Man
# In short: as §1
# [24] = target: Fuc(a1-3)[Gal(b1-4)]GlcNAc(b1-2)Man(a1-3)[Fuc(a1-3)[Gal(b1-4)]GlcNAc(b1-2)Man(a1-6)]Man(b1-4)GlcNAc(b1-4)GlcNAc
# In short: as §1
# [25] = target: Fuc(a1-3)[Gal(b1-4)]GlcNAc(b1-2)Man(a1-3)[Fuc(a1-3)[Gal(b1-4)]GlcNAc(b1-2)Man(a1-6)]Man(b1-4)GlcNAc(b1-4)[Fuc(a1-6)]GlcNAc
# In short: as §1
# [26] = target: Fuc(a1-3)[Gal(b1-4)]GlcNAc(b1-3)Gal(b1-3)[Fuc(a1-4)]GlcNAc
# In short: as §1
# [27] = target: Fuc(a1-3)[Gal(b1-4)]GlcNAc(b1-3)Gal(b1-4)[Fuc(a1-3)]GlcNAc
# In short: as §1
# [28] = target: Fuc(a1-3)[Gal(b1-4)]GlcNAc(b1-3)Gal(b1-4)[Fuc(a1-3)]GlcNAc(b1-3)Gal(b1-4)[Fuc(a1-3)]GlcNAc
# In short: as §1
# [29] = target: Fuc(a1-3)[Gal(b1-4)]GlcNAc(b1-3)GalNAc
# In short: as §1
# [30] = target: Fuc(a1-3)[Gal(b1-4)]GlcNAc(b1-4)Gal(b1-4)[Fuc(a1-3)]GlcNAc
# In short: as §1
# [31] = target: Fuc(a1-3)[Gal(b1-4)]GlcNAc(b1-4)Gal(b1-4)[Fuc(a1-3)]GlcNAc(b1-4)Gal(b1-4)[Fuc(a1-3)]GlcNAc
# In short: as §1
# [32] = target: Fuc(a1-3)[Gal(b1-4)]GlcNAc(b1-6)GalNAc
# In short: as §1
# [33] = target: Fuc(a1-3)[Gal(b1-4)]GlcNAc(b1-6)[Gal(b1-3)GlcNAc(b1-3)]Gal(b1-4)Glc
# In short: as §1
# [34] = target: Fuc(a1-3)[Gal(b1-4)]GlcNAc(b1-6)[Neu5Ac(a2-3)Gal(b1-3)]GalNAc
# In short: as §1
# [35] = target: Fuc(a1-3)[Gal(b1-4)]GlcNAc6S
# In short: as §1
# [36] = target: Fuc(a1-3)[Gal3S(b1-4)]Glc
# In short: as §1
binder,measurement,setting,value
B1,glycan array binding signal (z-score),[1],-0.286
same,glycan array binding signal (z-score),[2],-0.413
same,glycan array binding signal (z-score),[3],0.42
same,glycan array binding signal (z-score),[4],0.372
same,glycan array binding signal (z-score),[5],-0.12
same,glycan array binding signal (z-score),[6],-0.456
same,glycan array binding signal (z-score),[7],-0.78
same,glycan array binding signal (z-score),[8],0.409
same,glycan array binding signal (z-score),[9],1.1
same,glycan array binding signal (z-score),[10],-0.642
same,glycan array binding signal (z-score),[11],0.43
same,glycan array binding signal (z-score),[12],-0.277
same,glycan array binding signal (z-score),[13],0.121
same,glycan array binding signal (z-score),[14],0.039
same,glycan array binding signal (z-score),[15],-0.258
same,glycan array binding signal (z-score),[16],-0.016
same,glycan array binding signal (z-score),[17],0.187
same,glycan array binding signal (z-score),[18],1.65
same,glycan array binding signal (z-score),[19],-0.581
same,glycan array binding signal (z-score),[20],-0.529
same,glycan array binding signal (z-score),Fuc(a1-3)GlcNAc,-0.278
same,glycan array binding signal (z-score),[21],-0.159
same,glycan array binding signal (z-score),[22],-0.249
same,glycan array binding signal (z-score),[23],0.369
same,glycan array binding signal (z-score),[24],-0.753
same,glycan array binding signal (z-score),[25],0.786
same,glycan array binding signal (z-score),[26],-0.604
same,glycan array binding signal (z-score),[27],-0.573
same,glycan array binding signal (z-score),[28],0.878
same,glycan array binding signal (z-score),[29],0.628
same,glycan array binding signal (z-score),[30],-0.206
same,glycan array binding signal (z-score),[31],0.172
same,glycan array binding signal (z-score),[32],0.516
same,glycan array binding signal (z-score),[33],0.093
same,glycan array binding signal (z-score),[34],-0.592
same,glycan array binding signal (z-score),[35],0.177
same,glycan array binding signal (z-score),[36],-0.681

# Shown as tab-separated lines: entries from further up.
binder	measurement	setting	value
B1	glycan array binding signal (z-score)	[31]	0.172
same	glycan array binding signal (z-score)	[32]	0.516
